The target of this test is human CLDN3 wild type on RKO KO CLDN3 WT cells (human) (UniProt O15551). Kind of test: flow cytometry on RKO KO CLDN3 WT cells. For orientation: Flow cytometry measures light scatter and fluorescence of single cells or particles in a stream.

The chains behind the UniProt entries cited, without tags or fusion partners. Where a name states a change or a piece, a line headed by the entry shows the natural chain unless it says otherwise.
UniProt O15551: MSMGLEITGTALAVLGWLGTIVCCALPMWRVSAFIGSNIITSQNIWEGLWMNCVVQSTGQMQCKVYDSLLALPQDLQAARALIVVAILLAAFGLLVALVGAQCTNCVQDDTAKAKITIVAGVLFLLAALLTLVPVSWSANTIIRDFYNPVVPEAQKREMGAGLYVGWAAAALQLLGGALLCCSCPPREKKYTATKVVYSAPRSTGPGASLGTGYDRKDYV

These are yes or no findings as the source states them, for the method shown. Some results given as binding are weak or reduced against the parent protein; the word gives no strength.

B1: 906-mAb (anti-CLDN3 906-mAb, monoclonal antibody version of the scFv of 906-009_LNGFR) (antibody, V domains shown)
VH: QVQLVQSGAEVKKPGSSVKVSCKASGYTFTNYWVHWVRQAPGQGLEWMGRIEPNSSGSQYNEKFKNRVTITADKSTSTAYMELSSLRSEDTAVYYCARGVMVPLDYWGQGTLVTVSS
VL: DIQMTQSPSSLSASVGDRVTITCKASQDINRYIAWYQQKPGKAPKLLIHYTSTLQPGVPSRFSGSGSGTDFTLTISSLQPEDFATYYCLQYETLYSFGQGTKLEIK
As for B1, the binding entry is “binds”.

The values are drawn from patent publication US20230192842A1 (published 2023).
